{"sequences": {"note": "Protein sequences, listed by entry. Tags and fused reporters are not part of them.", "UniProt Q9VQ93": "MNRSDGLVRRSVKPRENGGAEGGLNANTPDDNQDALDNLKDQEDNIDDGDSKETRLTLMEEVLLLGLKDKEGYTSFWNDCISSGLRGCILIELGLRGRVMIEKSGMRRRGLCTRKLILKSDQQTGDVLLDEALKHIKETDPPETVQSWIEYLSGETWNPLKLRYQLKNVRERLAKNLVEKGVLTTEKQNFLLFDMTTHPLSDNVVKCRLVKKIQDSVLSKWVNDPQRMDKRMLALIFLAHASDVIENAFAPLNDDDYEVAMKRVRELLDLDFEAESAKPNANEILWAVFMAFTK"}, "source": "paper PMC9701223", "key": {"[1]": {"target": "T1, GST-Lst8 (Drosophila melanogaster) (UniProt Q9W328)", "T1 sequence": "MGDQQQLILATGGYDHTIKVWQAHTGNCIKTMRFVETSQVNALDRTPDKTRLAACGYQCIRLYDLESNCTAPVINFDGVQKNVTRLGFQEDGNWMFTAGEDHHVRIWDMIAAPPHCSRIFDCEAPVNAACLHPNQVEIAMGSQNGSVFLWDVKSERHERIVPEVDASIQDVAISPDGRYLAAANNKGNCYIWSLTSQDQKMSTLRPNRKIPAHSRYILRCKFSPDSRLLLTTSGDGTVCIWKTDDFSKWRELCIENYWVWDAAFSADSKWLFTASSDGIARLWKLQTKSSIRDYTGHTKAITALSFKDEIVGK", "experiment": "pull-down; GST or GST-tagged protein (4 µg) on glutathione-Sepharose 4B beads, incubated with testis extracts expressing dGOLPH3-HA, 4 °C, 2 h; wash 25 mM Tris-HCl pH 7.4, 150 mM NaCl, 1% NP-40, 1 mM EDTA; western blot; only the target purified"}, "[2]": {"target": "T2, GST-14-3-3ζ (Drosophila melanogaster) (UniProt P29310)", "T2 sequence": "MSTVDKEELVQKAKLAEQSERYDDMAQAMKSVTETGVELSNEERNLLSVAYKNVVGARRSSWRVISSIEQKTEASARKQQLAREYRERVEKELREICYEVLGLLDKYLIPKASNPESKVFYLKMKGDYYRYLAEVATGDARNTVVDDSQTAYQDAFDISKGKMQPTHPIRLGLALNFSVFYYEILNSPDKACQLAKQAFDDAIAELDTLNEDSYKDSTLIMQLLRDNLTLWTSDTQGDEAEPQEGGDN", "experiment": "pull-down; GST or GST-tagged protein (4 µg) on glutathione-Sepharose 4B beads, incubated with testis extracts expressing dGOLPH3-HA, 4 °C, 2 h; wash 25 mM Tris-HCl pH 7.4, 150 mM NaCl, 1% NP-40, 1 mM EDTA; western blot; only the target purified"}, "[3]": {"target": "T2, GST-14-3-3ζ (Drosophila melanogaster)", "experiment": "pull-down; GST or GST-tagged protein (4 µg) on glutathione-Sepharose 4B beads, incubated with Drosophila S2 cell lysate, 4 °C, 2 h; wash 25 mM Tris-HCl pH 7.4, 150 mM NaCl, 1% NP-40, 1 mM EDTA; western blot; only the target purified"}, "[4]": {"target": "T3, GST-Tctp (Drosophila Translationally controlled tumor protein) (Drosophila melanogaster) (UniProt Q9VGS2)", "T3 sequence": "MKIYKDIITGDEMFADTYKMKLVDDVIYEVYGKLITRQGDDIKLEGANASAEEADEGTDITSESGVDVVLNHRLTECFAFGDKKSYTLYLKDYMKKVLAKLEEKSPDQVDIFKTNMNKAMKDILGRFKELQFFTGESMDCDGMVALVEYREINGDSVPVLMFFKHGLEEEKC", "experiment": "pull-down; GST or GST-tagged protein (4 µg) on glutathione-Sepharose 4B beads, incubated with Drosophila S2 cell lysate, 4 °C, 2 h; wash 25 mM Tris-HCl pH 7.4, 150 mM NaCl, 1% NP-40, 1 mM EDTA; western blot; only the target purified"}, "[5]": {"target": "T4, Tctp-HA (HA-tagged Tctp) (Drosophila melanogaster) (UniProt Q9VGS2)", "T4 sequence": "T3 sequence", "experiment": "co-IP; anti-HA agarose beads on lysates of pupae overexpressing Tctp-HA, with or without knockdown of dGOLPH3 (RNAi); Buffer A, 4 °C; eluted with 200 mM glycine pH 2.0"}}, "note": "These are yes or no findings as the source states them, for the method shown. In cells and extracts the contact can be indirect. Some results given as binding are weak or reduced against the parent protein; the word gives no strength. Where a sequence is shown, tags or fusion partners need not be part of it."}
{"substance": "dGOLPH3-HA (hemagglutinin tagged dGOLPH3) (from UniProt Q9VQ93 1-294)", "values": [{"measurement": "binding", "setting": "[1]", "value": "binds"}, {"measurement": "binding", "setting": "[2]", "value": "binds"}]}
{"substance": "dGOLPH3 (Drosophila Golgi phosphoprotein 3), endogenous in S2 cells (from UniProt Q9VQ93 1-294)", "values": [{"measurement": "binding", "setting": "[3]", "value": "binds"}, {"measurement": "binding", "setting": "[4]", "value": "binds"}]}
{"substance": "dGOLPH3 (Drosophila Golgi phosphoprotein 3), endogenous in pupae (from UniProt Q9VQ93 1-294)", "values": [{"measurement": "binding", "setting": "[5]", "value": "binds"}]}
